Source: PubChem BioAssay AID1508630 (NCATS, 2021).

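SH-SY5Y cells carrying a GLuc-SERCaMP reporter are challenged with thapsigargin, and luminescence from the secreted luciferase is read, with one incubation step lasting 4 hours.
Compounds were run as a dilution series spanning about 2.6e-05 to 200 µM, mostly topping out at 38.4 µM.
The number is the fitted AC50 for inhibition of the reporter signal; a lower value means a more potent compound.
Calls come from curve class and activity score: actives score 40 to 100, inconclusives 1 to 39, and inactives (curve class 4) score 0.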

Values are in nM.
Every entry below has the call inconclusive.
Only part of the assay is shown, chiefly results filed as inconclusive.
A potency from a partial, single-point or poor curve is only a rough figure.
Some entries filed as inconclusive have a full curve.
Activity scores are not listed here.
An entry listed twice with the same setting is a separate test.

Compound: COc1cccc(Cn2c(=O)c(CCc3ccccc3)nc3cnc(N4CCNCC4)nc32)c1
Potency (nM): 5623
curve: inhibitor, partial curve, poor fit

Compound: NC(=O)COCCN1CCN(C(c2ccccc2)c2ccc(Cl)cc2)CC1 (configuration not stated)
Potency (nM): 28183
curve: inhibitor, single point

Compound: CC(C)(O)C1O[C@H]2CC[C@@]3(C)[C@@](O)(CC[C@H]4Cc5c([nH]c6ccccc56)[C@@]43C)C2=CC1=O (some centres not stated)
Potency (nM): 28183
curve: inhibitor, single point

Compound: NC[C@H](CC(=O)O)c1ccc(Cl)cc1
Potency (nM): 10000
curve: inhibitor, partial curve, poor fit

Compound: CN1CCN(c2nc(-c3ccc(N(C)C)cc3)nc3ccccc23)CC1
Potency (nM): 10000
curve: inhibitor, partial curve, poor fit

Compound: CN(C)c1ccc(-c2nccc(NCc3ccccc3)n2)cc1
Potency (nM): 31622
curve: inhibitor, partial curve, poor fit

Compound: Oc1cc(O)cc(/C=C/c2ccc(O)c(O)c2)c1
Potency (nM): 31622
curve: inhibitor, partial curve, poor fit

Compound: Cc1cc(O)c2c(c1)C(=O)c1cc(O)cc(O)c1C2=O
Potency (nM): 3548
curve: inhibitor, partial curve, poor fit

Compound: COc1ccccc1N1CCN(CCN2C(=O)c3ccccc3C(C)(C)C2=O)CC1
Potency (nM): 5012
curve: inhibitor, partial curve, poor fit

Compound: CS(=O)(=O)N1CCC[C@@]2(CCN(c3ccncc3)C2)C1
Potency (nM): 6310
curve: inhibitor, partial curve, poor fit

Compound: COc1ncc2nc(-c3ccccc3)c(=O)n(CCc3ccccc3)c2n1
Potency (nM): 28183
curve: inhibitor, single point

Compound: CC(C)NCC(O)c1ccc(O)c(O)c1 (configuration not stated)
Potency (nM): 1
curve: inhibitor, full curve

Compound: COc1ccc(C(=O)N2CCC3(CC2)CN(c2ccccn2)C3)cc1
Potency (nM): 17782
curve: inhibitor, single point

Compound: CC(C)[C@@]1(NC(=O)[C@@H]2C[C@H]3c4cccc5[nH]cc(c45)C[C@@H]3N(C)C2)O[C@@]2(O)[C@H]3CCCN3C(=O)[C@H](Cc3ccccc3)N2C1=O
Potency (nM): 6310
curve: inhibitor, partial curve, poor fit

Compound: COc1ccc(-n2c(=O)c(-c3cccs3)nc3cnc(N4CCN(C)CC4)nc32)cc1
Potency (nM): 10000
curve: inhibitor, partial curve, poor fit

Compound: CN1C[C@H](C(=O)N[C@]2(C)O[C@@]3(O)[C@H]4CCCN4C(=O)[C@H](Cc4ccccc4)N3C2=O)C[C@H]2c3cccc4[nH]cc(c34)C[C@@H]21
Potency (nM): 10000
curve: inhibitor, partial curve, poor fit

Compound: NC(N)=Nc1ccc(Cl)cc1
Potency (nM): 0.5
curve: inhibitor, full curve

Compound: COc1ccc(C(=O)N2CCC3(CC2)CCN(c2ccccn2)CC3)cc1
Potency (nM): 25118
curve: inhibitor, single point

Compound: c1cc2c3c(c1)c1c(n3CCNC2)CCCC1
Potency (nM): 28183
curve: inhibitor, single point

Compound: Cn1cc(C2=C(c3ccc(Cl)cc3Cl)C(=O)NC2=O)c2ccccc21
Potency (nM): 28183
curve: inhibitor, single point

Compound: O=C(O)c1cc(=O)c2c(OCC(O)COc3cccc4oc(C(=O)O)cc(=O)c34)cccc2o1
Potency (nM): 10000
curve: inhibitor, partial curve, poor fit

Compound: O=Nc1c(-c2c(O)[nH]c3ccccc23)[nH]c2ccccc12
Potency (nM): 10000
curve: inhibitor, partial curve, poor fit

Compound: O=c1c(-c2ccc(F)cc2)nc2cnc(N3CCNCC3)nc2n1-c1ccccc1
Potency (nM): 10000
curve: inhibitor, partial curve, poor fit

Compound: COCCn1c(=O)c(-c2ccc(OC)cc2)nc2cnc(OC)nc21
Potency (nM): 28183
curve: inhibitor, single point

Compound: c1ccc(N2CCCC3(CCNCC3)C2)nc1
Potency (nM): 35481
curve: inhibitor, full curve

Compound: Cc1cn([C@H]2C=C[C@@H](CO)O2)c(=O)[nH]c1=O
Potency (nM): 3548
curve: inhibitor, full curve, poor fit

Compound: COc1ccc(-n2c(=O)c(C)nc3cnc(N4CCNCC4)nc32)cc1
Potency (nM): 31622
curve: inhibitor, partial curve, poor fit

Compound: CC(C)(O)C1O[C@H]2CC[C@@]3(C)[C@@](O)(CC[C@H]4Cc5c([nH]c6ccccc56)[C@@]43C)C2=CC1=O (some centres not stated)
Potency (nM): 14125
curve: inhibitor, single point

Compound: O=C(/C=C\c1ccc(O)c(O)c1)O[C@@H](Cc1ccc(O)c(O)c1)C(=O)O
Potency (nM): 31622
curve: inhibitor, partial curve, poor fit

The first 3 entries again:

Result for COc1cccc(Cn2c(=O)c(CCc3ccccc3)nc3cnc(N4CCNCC4)nc32)c1 was Potency 5623 nM (inhibitor, partial curve, poor fit).
Result for NC(=O)COCCN1CCN(C(c2ccccc2)c2ccc(Cl)cc2)CC1 (configuration not stated) was Potency 28183 nM (inhibitor, single point).
Result for CC(C)(O)C1O[C@H]2CC[C@@]3(C)[C@@](O)(CC[C@H]4Cc5c([nH]c6ccccc56)[C@@]43C)C2=CC1=O (some centres not stated) was Potency 28183 nM (inhibitor, single point).